No constants are given. Whether binding was seen depends on the method and setting. In cells and extracts the contact can be indirect.
Experiments:
[1] = target: Myc-SMN2a (SMN-Δ7, exon 7-deleted form of survival motor neuron protein) (human) (UniProt Q16637); test: co-IP; HEK293 cells co-transfected with 1 μg protease plasmid, 1 μg pLVX-Tight-Myc-SMN2a/d and 1 μg EF1α-rtTA plasmid; which partner was precipitated is not told for this experiment
[2] = target: Myc-SMN2d (SMN-FL, full-length survival motor neuron protein) (human) (UniProt Q16637); test: as above

By UniProt entry, the sequences of proteins in these tests, tags left out. Where a name states a change or a piece, a line headed by the entry shows the natural chain unless it says otherwise. Chains listed by the source or under a name are the forms on record and can include a tag or linker.
UniProt Q16637: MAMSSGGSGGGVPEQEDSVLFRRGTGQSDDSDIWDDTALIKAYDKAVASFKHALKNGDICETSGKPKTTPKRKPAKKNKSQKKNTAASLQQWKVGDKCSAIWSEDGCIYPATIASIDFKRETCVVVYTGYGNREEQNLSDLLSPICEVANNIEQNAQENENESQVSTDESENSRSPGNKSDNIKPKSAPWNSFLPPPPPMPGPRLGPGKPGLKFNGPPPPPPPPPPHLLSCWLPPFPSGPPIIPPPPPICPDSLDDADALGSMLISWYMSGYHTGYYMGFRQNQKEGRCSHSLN
Myc-SMN2a (SMN-Δ7, exon 7-deleted form of survival motor neuron protein) (Q16637, form named): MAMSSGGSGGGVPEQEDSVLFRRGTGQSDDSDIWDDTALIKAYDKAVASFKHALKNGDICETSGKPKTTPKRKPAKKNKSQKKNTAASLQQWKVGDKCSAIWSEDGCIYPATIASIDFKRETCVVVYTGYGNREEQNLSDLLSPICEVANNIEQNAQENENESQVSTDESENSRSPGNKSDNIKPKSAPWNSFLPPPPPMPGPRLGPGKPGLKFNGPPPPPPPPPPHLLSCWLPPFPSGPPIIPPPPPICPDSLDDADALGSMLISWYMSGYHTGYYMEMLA
UniProt P07711: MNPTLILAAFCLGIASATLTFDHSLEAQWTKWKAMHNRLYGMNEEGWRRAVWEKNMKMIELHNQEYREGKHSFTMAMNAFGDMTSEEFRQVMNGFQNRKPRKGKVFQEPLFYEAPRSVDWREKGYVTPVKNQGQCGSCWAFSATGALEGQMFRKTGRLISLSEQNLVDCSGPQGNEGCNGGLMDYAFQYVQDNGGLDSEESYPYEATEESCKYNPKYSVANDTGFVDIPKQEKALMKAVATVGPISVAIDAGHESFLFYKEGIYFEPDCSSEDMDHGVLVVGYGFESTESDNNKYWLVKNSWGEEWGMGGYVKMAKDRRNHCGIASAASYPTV

## C9-tagged CTSL (from UniProt P07711) (enzyme)
[1]
  binding: no binding
[2]
  binding: no binding
